Some of the results follow.

Sequences of proteins named here, by UniProt entry; tags and fusion partners are left off.
UniProt Q0JBA9, entry or part of it: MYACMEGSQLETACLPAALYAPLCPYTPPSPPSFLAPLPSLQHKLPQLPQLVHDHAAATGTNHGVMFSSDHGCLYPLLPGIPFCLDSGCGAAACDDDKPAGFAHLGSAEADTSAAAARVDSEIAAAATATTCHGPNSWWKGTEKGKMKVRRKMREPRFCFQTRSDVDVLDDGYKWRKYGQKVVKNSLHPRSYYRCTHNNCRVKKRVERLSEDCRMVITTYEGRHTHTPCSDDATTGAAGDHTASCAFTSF

In this experiment the target is OsWRKY34 (Oryza sativa, UniProt Q0JBA9 1-250). Kind of experiment: protein-binding microarray (RPBM); PBS, 2% BSA, 51.3 ng/ul salmon testes DNA, 50 uM zinc acetate, 200 nM TF, 25 C, 1 h; high values mean tight binding. The conditions noted are these: protein: recombinant; tags: N-terminal polyhistidine and DsRed monomer fusion (pET32a); label: CyDye5-dUTP incorporated in the synthesized complementary strand; 3' TTTTT single-stranded linker to array surface; dsDNA, one strand shown. An outline of the steps:
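The binding signal is fluorescence intensity per feature, in arbitrary units, read on an Axon 4000B scanner. Polyhistidine- and DsRed-tagged transcription factors (N-terminal fusions) from E. coli BL21-CodonPlus were purified on Ni–NTA and applied at 200 nM for 1 h at 25 °C to a double-stranded, BSA-blocked custom Agilent array in buffer with 50 µM zinc acetate.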
In the case of “GAAGTTTTCCGAAATGCTACTTGGCCTTTTTAGCTACCAACGGAGTCACCTAGTGCAG”, the binding signal was 8550 fluorescence intensity (a.u.).

As to “TATGAGATTTTTTTTATTTTCATTGTATTTATATCCAATTCGGAGTCACCTAGTGCAG”, the binding signal is 8670 fluorescence intensity (a.u.). In the case of “CCTATTCCACATATTCCACAAATATTTGTTGCAAGCCATCCGGAGTCACCTAGTGCAG”, the binding signal is 10000 fluorescence intensity (a.u.).

Consider “GTTTTTTGGTTGGGGTGTGTTTTGGTCTATCGAGGTTCAACGGAGTCACCTAGTGCAG”, for which the binding signal is 15600 fluorescence intensity (a.u.). Next, “CTCTCGTCTCGCCCTGGCGTACGTTGTTTGTGTCACGCTTCGGAGTCACCTAGTGCAG”: 9120 fluorescence intensity (a.u.); “CTCCTCGTCCATGTCCTCGTCTTCTTTCTTCCACACCAAACGGAGTCACCTAGTGCAG”: 11900 fluorescence intensity (a.u.). Next, “CTCCCGCCTCTGCGTCCCGCGCCGCCGCCCGCCACTCGACCGGAGTCACCTAGTGCAG”: 8870 fluorescence intensity (a.u.). Consider “ACTTCACGCTTTCTCTCTGAGCTAGTGGTCCCACATGTCACGGAGTCACCTAGTGCAG”, for which the binding signal was 8560 fluorescence intensity (a.u.). The same measure for “ATATATTGCTTGTGTTGCTTATTTTCCAATCGTCTCCTTTCGGAGTCACCTAGTGCAG”: 10300 fluorescence intensity (a.u.); for “TAACTATCCCCTGTTACTACTCTTGATCCTTGTATCCCTGCGGAGTCACCTAGTGCAG”: 8200 fluorescence intensity (a.u.). For “CAATCGGCTTTACTGTGCGTCTGATTACTGTGCGCGAGACCGGAGTCACCTAGTGCAG”, the binding signal is 8440 fluorescence intensity (a.u.). Turning to “CATTCAAGCTCTACTATCCAACATCACTCGAGGTTCTTTTCGGAGTCACCTAGTGCAG”, the binding signal was 11200 fluorescence intensity (a.u.).

As for “AATATTTTGGGTATTACATCGAACGTTTGACCAGATGTTGCGGAGTCACCTAGTGCAG”, the binding signal was 10200 fluorescence intensity (a.u.). Turning to “TATAAGACGTTTTGACTTTGGTCAAAGTCAAACTGCTTCACGGAGTCACCTAGTGCAG”, the binding signal was 13700 fluorescence intensity (a.u.). As to “ATACTTATTCCTTTTTAGCGCAACCTGATAGTGTCTCATACGGAGTCACCTAGTGCAG”, the binding signal was 8560 fluorescence intensity (a.u.). Consider “CTATCATCTCCCCTCACTCTCTCTTTCTCTCCTCTCTTGCCGGAGTCACCTAGTGCAG”, for which the binding signal was 8080 fluorescence intensity (a.u.).

On to “CGCCTCGGACCACATGCACACGCAAACCCACCGCCAATTTCGGAGTCACCTAGTGCAG”, for which the binding signal was 9040 fluorescence intensity (a.u.). On to “AAAAGTTCAAATATTAGTCTATCATCCTATCTATTTTTTTCGGAGTCACCTAGTGCAG”, for which the binding signal is 8620 fluorescence intensity (a.u.). Turning to “ATATCTCTCTCTGCTTACCCATGCGTACTCATGCCGTTGTCGGAGTCACCTAGTGCAG”, the binding signal was 11900 fluorescence intensity (a.u.).

For “AAATACCTCGGAACCACGGTGTCGTTATCCCCGCGTCGCGCGGAGTCACCTAGTGCAG”, the binding signal is 8600 fluorescence intensity (a.u.). Next, “GTATCCATTCCTGCAAATCCAAGTTGGCAATTCCGAGGGCCGGAGTCACCTAGTGCAG”: 8310 fluorescence intensity (a.u.); “CCACCATTCTTTTATTGATTTATGTGTGAGACTGACATGTCGGAGTCACCTAGTGCAG”: 8420 fluorescence intensity (a.u.). As to “CCCTTCTCACCCCTTGCCTTGGCCTCCTTGCTATCATCCTCGGAGTCACCTAGTGCAG”, the binding signal is 9120 fluorescence intensity (a.u.). As for “CGTTATTGCTGATGTAGGTTTACCACAGGCTAAGCTAGCCCGGAGTCACCTAGTGCAG”, the binding signal was 8700 fluorescence intensity (a.u.). The same measure for “AACCTATCGGAACGGCAGCTCGCCGCCCCACCAACCCAAACGGAGTCACCTAGTGCAG”: 8350 fluorescence intensity (a.u.). The same measure for “CAACACAATGACCATTAACATATCAGTCACAGCTCTTATTCGGAGTCACCTAGTGCAG”: 8840 fluorescence intensity (a.u.). As to “CTTTTTTTTCACAAATGCTATTGTAGTTCTTCATTTTTAACGGAGTCACCTAGTGCAG”, the binding signal was 9360 fluorescence intensity (a.u.). On to “GCGGGGAACTTAACTAAAAATTCCTACACCCCTTTTGAGTCGGAGTCACCTAGTGCAG”, for which the binding signal is 8360 fluorescence intensity (a.u.).

As for “ACGCATCCCACGCCGCCGTGCCGCCCTCTCTCTCACGCATCGGAGTCACCTAGTGCAG”, the binding signal is 8270 fluorescence intensity (a.u.). On to “CTCGCCCTTGATTGGTTCGATACACGTTTTCCCCTCGTTTCGGAGTCACCTAGTGCAG”, for which the binding signal was 8640 fluorescence intensity (a.u.).

On to “CTTTCGTTGGCATATTTGTTTTTGTACATCATTTCTAAACCGGAGTCACCTAGTGCAG”, for which the binding signal is 10800 fluorescence intensity (a.u.). With “TTTTTATGGCTAAAACATGCAAAACCTGACTTTGCATCATCGGAGTCACCTAGTGCAG”, the binding signal is 8160 fluorescence intensity (a.u.). The same measure for “GTGATATATGTGATTGACCAAACATACAGGTACAGTAATTCGGAGTCACCTAGTGCAG”: 9240 fluorescence intensity (a.u.).

Turning to “GCTCTTGCCTATTCCGTGCTTTGAGATTCGGGCGCTCTCTCGGAGTCACCTAGTGCAG”, the binding signal is 8630 fluorescence intensity (a.u.).

“AGTCCTTGCCAATTATAACCTTCATTCATTTTTCTAATCCCGGAGTCACCTAGTGCAG”: the binding signal was 8550 fluorescence intensity (a.u.). With “CATTCTTCCATAGGGACGACTATGTTTTTCAATTCTACTACGGAGTCACCTAGTGCAG”, the binding signal was 8510 fluorescence intensity (a.u.). Regarding “CGCTGCTTTCGATTCCCCTGACCGCCCCGCGTAGCCGCCGCGGAGTCACCTAGTGCAG”, the binding signal is 8910 fluorescence intensity (a.u.). For the sequence “CTGGCATGTTACTTTTTCTGTTTGTATCTTTTCTTTCTTTCGGAGTCACCTAGTGCAG”, the binding signal is 13900 fluorescence intensity (a.u.). The same measure for “CACCATTAGCATCATTTAAAGTATAAGGTCCCATTTGATTCGGAGTCACCTAGTGCAG”: 8040 fluorescence intensity (a.u.). With “TTTAAATGTATCATGTCATTGACTTTTTTATAATATTTGACGGAGTCACCTAGTGCAG”, the binding signal is 8120 fluorescence intensity (a.u.). Next, “ACATCGTTTTTCGCTCAATGTTGCCACGCTGGCATGCCACCGGAGTCACCTAGTGCAG”: 9760 fluorescence intensity (a.u.); “TATGCGCAGAACATGAGGGAGGGGTTGGGAACACTTAACACGGAGTCACCTAGTGCAG”: 13000 fluorescence intensity (a.u.).

Source of the values: paper PMC7819943, “Rice protein-binding microarrays: a tool to detect cis-acting elements near promoter regions in rice”.
